Assay results reported in patent US10758623B2, “Pharmaceutically active agent complexes, polymer complexes, and compositions and methods involving the same” (Durect Corporation, priority 2013, dated 2020).
At least one compound was matched to its structure with a doubt left.

Assay: Attempted complexation of decitabine with functionalized copolymers (Example 13)
Format: physicochemical
Settings: with AFCP-1, AFCP-2, CFCP-1 (1:1) and CFCP-4 (1:4) in DMSO/water

Nc1ncn([C@H]2C[C@H](O)[C@@H](CO)O2)c(=O)n1 [decitabine]
decitabine complex yields: relatively poor
